Assay results reported in the supplement of paper PMC8728848.
Some of the results follow.

What was measured:
Experiment in all cases: glycan array binding signal (z-score within array); higher = stronger binding
Conditions in all cases: glycan notation: IUPAC condensed, linker removed
[1] = molecular target: Fuc(a1-2)Gal
Summary of the method: (§1)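 Columns mapping to the same glycan were averaged after glycan names were converted to IUPAC-condensed notation. The data come from 3228 arrays in the Consortium for Functional Glycomics database, limited to those with an available protein sequence. Binding is reported as a within-array Z-score averaged across arrays of one protein sequence and across linkers.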

[2] = molecular target: Fuc(a1-2)Gal(b1-3)GalNAc
Summary of the method: as §1

[3] = molecular target: Fuc(a1-2)Gal(b1-3)GalNAc(a1-3)[Fuc(a1-2)]Gal(b1-4)Glc
Summary of the method: as §1

[4] = molecular target: Fuc(a1-2)Gal(b1-3)GalNAc(a1-3)[Fuc(a1-2)]Gal(b1-4)GlcNAc
Summary of the method: as §1

[5] = molecular target: Fuc(a1-2)Gal(b1-3)GalNAc(b1-3)Gal
Summary of the method: as §1

[6] = molecular target: Fuc(a1-2)Gal(b1-3)GalNAc(b1-3)Gal(a1-4)Gal(b1-4)Glc
Summary of the method: as §1

[7] = molecular target: Fuc(a1-2)Gal(b1-3)GalNAc(b1-4)[Neu5Ac(a2-3)]Gal(b1-4)Glc
Summary of the method: as §1

[8] = molecular target: Fuc(a1-2)Gal(b1-3)GlcNAc
Summary of the method: as §1

[9] = molecular target: Fuc(a1-2)Gal(b1-3)GlcNAc(b1-2)Man(a1-3)[Fuc(a1-2)Gal(b1-3)GlcNAc(b1-2)Man(a1-6)]Man(b1-4)GlcNAc(b1-4)GlcNAc
Summary of the method: as §1

[10] = molecular target: Fuc(a1-2)Gal(b1-3)GlcNAc(b1-2)Man(a1-3)[Fuc(a1-2)Gal(b1-3)GlcNAc(b1-2)Man(a1-6)]Man(b1-4)GlcNAc(b1-4)[Fuc(a1-6)]GlcNAc
Summary of the method: as §1

[11] = molecular target: Fuc(a1-2)Gal(b1-3)GlcNAc(b1-3)Gal(b1-4)Glc
Summary of the method: as §1

[12] = molecular target: Fuc(a1-2)Gal(b1-3)GlcNAc(b1-3)GalNAc
Summary of the method: as §1

[13] = molecular target: Fuc(a1-2)Gal(b1-3)GlcNAc(b1-3)[Fuc(a1-2)Gal(b1-3)GlcNAc(b1-6)]GalNAc
Summary of the method: as §1

[14] = molecular target: Fuc(a1-2)Gal(b1-3)GlcNAc(b1-3)[Gal(b1-4)GlcNAc(b1-6)]Gal(b1-4)Glc
Summary of the method: as §1

[15] = molecular target: Fuc(a1-2)Gal(b1-3)GlcNAc(b1-3)[Neu5Ac(a2-6)Gal(b1-4)GlcNAc(b1-6)]Gal(b1-4)Glc
Summary of the method: as §1

[16] = molecular target: Fuc(a1-2)Gal(b1-3)GlcNAc6S
Summary of the method: as §1

[17] = molecular target: Fuc(a1-2)Gal(b1-3)[Fuc(a1-4)]GlcNAc
Summary of the method: as §1

[18] = molecular target: Fuc(a1-2)Gal(b1-3)[Fuc(a1-4)]GlcNAc(b1-2)Man(a1-3)[Fuc(a1-2)Gal(b1-3)[Fuc(a1-4)]GlcNAc(b1-2)Man(a1-3)]Man(b1-4)GlcNAc(b1-4)GlcNAc
Summary of the method: as §1

[19] = molecular target: Fuc(a1-2)Gal(b1-3)[Fuc(a1-4)]GlcNAc(b1-2)Man(a1-3)[Fuc(a1-2)Gal(b1-3)[Fuc(a1-4)]GlcNAc(b1-2)Man(a1-6)]Man(b1-4)GlcNAc(b1-4)[Fuc(a1-6)]GlcNAc(b1-4)[Fuc(a1-6)]GlcNAc
Summary of the method: as §1

[20] = molecular target: Fuc(a1-2)Gal(b1-3)[Fuc(a1-4)]GlcNAc(b1-3)[Fuc(a1-3)[Gal(b1-4)]GlcNAc(b1-6)]Gal(b1-4)Glc
Summary of the method: as §1

[21] = molecular target: Fuc(a1-2)Gal(b1-3)[Fuc(a1-4)]GlcNAc(b1-3)[Gal(b1-4)GlcNAc(b1-6)]Gal(b1-4)Glc
Summary of the method: as §1

[22] = molecular target: Fuc(a1-2)Gal(b1-4)Fuc(a1-3)]GlcNAc(b1-2)Man(a1-3)[Fuc(a1-2)Gal(b1-4)[Fuc(a1-3)]GlcNAc(b1-2)Man(a1-6)]Man(b1-4)GlcNAc(b1-4)GlcNAc
Summary of the method: as §1

[23] = molecular target: Fuc(a1-2)Gal(b1-4)Glc
Summary of the method: as §1

[24] = molecular target: Fuc(a1-2)Gal(b1-4)Glc6S
Summary of the method: as §1

[25] = molecular target: Fuc(a1-2)Gal(b1-4)GlcNAc
Summary of the method: as §1

[26] = molecular target: Fuc(a1-2)Gal(b1-4)GlcNAc(b1-2)Man
Summary of the method: as §1

[27] = molecular target: Fuc(a1-2)Gal(b1-4)GlcNAc(b1-2)Man(a1-3)[Fuc(a1-2)Gal(b1-4)GlcNAc(b1-2)Man(a1-6)]Man(b1-4)GlcNAc(b1-4)GlcNAc
Summary of the method: as §1

[28] = molecular target: Fuc(a1-2)Gal(b1-4)GlcNAc(b1-2)Man(a1-3)[Fuc(a1-2)Gal(b1-4)GlcNAc(b1-2)Man(a1-6)]Man(b1-4)GlcNAc(b1-4)[Fuc(a1-6)]GlcNAc
Summary of the method: as §1

[29] = molecular target: Fuc(a1-2)Gal(b1-4)GlcNAc(b1-2)[Fuc(a1-2)Gal(b1-4)GlcNAc(b1-4)]Man(a1-3)[Fuc(a1-2)Gal(b1-4)GlcNAc(b1-2)Man(a1-6)]Man(b1-4)GlcNAc(b1-4)GlcNAc
Summary of the method: as §1

[30] = molecular target: Fuc(a1-2)Gal(b1-4)GlcNAc(b1-3)Gal(b1-4)GlcNAc
Summary of the method: as §1

[31] = molecular target: Fuc(a1-2)Gal(b1-4)GlcNAc(b1-3)Gal(b1-4)GlcNAc(b1-2)Man(a1-3)[Fuc(a1-2)Gal(b1-4)GlcNAc(b1-3)Gal(b1-4)GlcNAc(b1-2)Man(a1-6)]Man(b1-4)GlcNAc(b1-4)GlcNAc
Summary of the method: as §1

[32] = molecular target: Fuc(a1-2)Gal(b1-4)GlcNAc(b1-3)Gal(b1-4)GlcNAc(b1-3)Gal(b1-4)GlcNAc
Summary of the method: as §1

[33] = molecular target: Fuc(a1-2)Gal(b1-4)GlcNAc(b1-3)GalNAc
Summary of the method: as §1

[34] = molecular target: Fuc(a1-2)Gal(b1-4)GlcNAc(b1-3)[Fuc(a1-2)Gal(b1-4)GlcNAc(b1-6)]GalNAc
Summary of the method: as §1

[35] = molecular target: Fuc(a1-2)Gal(b1-4)GlcNAc(b1-3)[Fuc(a1-3)[Gal(b1-4)]GlcNAc(b1-6)]Gal(b1-4)Glc
Summary of the method: as §1

[36] = molecular target: Fuc(a1-2)Gal(b1-4)GlcNAc(b1-6)GalNAc
Summary of the method: as §1

[37] = molecular target: Fuc(a1-2)Gal(b1-4)GlcNAc6S
Summary of the method: as §1

[38] = molecular target: Fuc(a1-2)Gal(b1-4)[Fuc(a1-3)]GlcNAc
Summary of the method: as §1

[39] = molecular target: Fuc(a1-2)Gal(b1-4)[Fuc(a1-3)]GlcNAc(b1-2)Man(a1-3)[Fuc(a1-2)Gal(b1-4)[Fuc(a1-3)]GlcNAc(b1-2)Man(a1-6)]Man(b1-4)GlcNAc(b1-4)[Fuc(a1-6)]GlcNAc
Summary of the method: as §1

[40] = molecular target: Fuc(a1-2)Gal(b1-4)[Fuc(a1-3)]GlcNAc(b1-2)[Fuc(a1-2)Gal(b1-4)[Fuc(a1-3)]GlcNAc(b1-4)]Man(a1-3)[Fuc(a1-2)Gal(b1-4)[Fuc(a1-3)]GlcNAc(b1-2)Man(a1-6)]Man(b1-4)GlcNAc(b1-4)GlcNAc
Summary of the method: as §1

[41] = molecular target: Fuc(a1-2)Gal(b1-4)[Fuc(a1-3)]GlcNAc(b1-3)Gal(b1-4)[Fuc(a1-3)]GlcNAc
Summary of the method: as §1

[42] = molecular target: Fuc(a1-2)Gal(b1-4)[Fuc(a1-3)]GlcNAc(b1-3)Gal(b1-4)[Fuc(a1-3)]GlcNAc(b1-3)Gal(b1-4)[Fuc(a1-3)]GlcNAc
Summary of the method: as §1

[43] = molecular target: Fuc(a1-2)Gal(b1-4)[Fuc(a1-3)]GlcNAc(b1-3)GalNAc
Summary of the method: as §1

[44] = molecular target: Fuc(a1-2)Gal(b1-4)[Fuc(a1-3)]GlcNAc(b1-3)[Neu5Ac(a2-6)Gal(b1-4)GlcNAc(b1-6)]Gal(b1-4)Glc
Summary of the method: as §1

[45] = molecular target: Fuc(a1-2)Gal3S(b1-4)GlcNAc
Summary of the method: as §1

B1: Epa21 (Candida glabrata) (protein)
chain: MGSSHHHHHHSSGLVPRGSHMASTPNIESHPQGCSPVDTSGIKPGLKMDLYRFPITPPGTGCWSWDWLTVTPDFPRSGYWKWPKIAEVDGVVGPLHLDSGHPTCDPLTSVLPHGFNYLQSITTTNFTMVLHGYFVPKQSGKYTFEFKADDALLLNLGAGNAFSCCDYNNSQYNQGEYLAYAIWSKNNQTATLYLEKGIYYPIRVFYHNRCCGAYMDVVYYFNDSPIPNRDFSGLLFSIPDSDSCDANI
- glycan array binding signal (z-score) [1]: -0.249
- glycan array binding signal (z-score) [2]: -0.67
- glycan array binding signal (z-score) [3]: -0.699
- glycan array binding signal (z-score) [4]: -0.512
- glycan array binding signal (z-score) [5]: 0.656
- glycan array binding signal (z-score) [6]: -0.005
- glycan array binding signal (z-score) [7]: -0.391
- glycan array binding signal (z-score) [8]: -0.348
- glycan array binding signal (z-score) [9]: 0.416
- glycan array binding signal (z-score) [10]: 0.061
- glycan array binding signal (z-score) [11]: -0.405
- glycan array binding signal (z-score) [12]: -0.112
- glycan array binding signal (z-score) [13]: 0.797
- glycan array binding signal (z-score) [14]: -0.436
- glycan array binding signal (z-score) [15]: -0.865
- glycan array binding signal (z-score) [16]: -0.453
- glycan array binding signal (z-score) [17]: -0.63
- glycan array binding signal (z-score) [18]: 0.073
- glycan array binding signal (z-score) [19]: -0.251
- glycan array binding signal (z-score) [20]: -0.838
- glycan array binding signal (z-score) [21]: -0.368
- glycan array binding signal (z-score) [22]: 2.49
- glycan array binding signal (z-score) [23]: -0.605
- glycan array binding signal (z-score) [24]: 0.752
- glycan array binding signal (z-score) [25]: -0.158
- glycan array binding signal (z-score) [26]: 0.069
- glycan array binding signal (z-score) [27]: -0.489
- glycan array binding signal (z-score) [28]: -0.477
- glycan array binding signal (z-score) [29]: -0.763
- glycan array binding signal (z-score) [30]: -0.829
- glycan array binding signal (z-score) [31]: -0.006
- glycan array binding signal (z-score) [32]: -0.508
- glycan array binding signal (z-score) [33]: -0.404
- glycan array binding signal (z-score) [34]: -0.296
- glycan array binding signal (z-score) [35]: -0.678
- glycan array binding signal (z-score) [36]: 1.15
- glycan array binding signal (z-score) [37]: 0.055
- glycan array binding signal (z-score) [38]: -0.576
- glycan array binding signal (z-score) [39]: 0.665
- glycan array binding signal (z-score) [40]: 1.68
- glycan array binding signal (z-score) [41]: -1.17
- glycan array binding signal (z-score) [42]: -0.736
- glycan array binding signal (z-score) [43]: 1.41
- glycan array binding signal (z-score) [44]: -0.544
- glycan array binding signal (z-score) [45]: -0.281
